Results taken from the supplement of paper PMC8728848.
The list shows a part of the results.

Assays:
Experiment in all cases: glycan array binding signal (z-score within array); higher = stronger binding
Conditions in all cases: glycan notation: IUPAC condensed, linker removed
[1] = target: Gal(b1-3)[Fuc(a1-4)]GlcNAc(b1-6)GalNAc
Method in brief: (§1)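 Arrays were curated from the Consortium for Functional Glycomics database, 3228 in total, and kept only where the protein sequence was available. Binding is expressed as a within-array Z-score. This score was averaged across arrays of the same protein sequence at different concentrations or buffers and across linkers, and negative values can be read as non-binding.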

[2] = target: Gal(b1-3)[GlcNAc(b1-6)]GalNAc
Method in brief: as §1

[3] = target: Gal(b1-3)[Neu5Ac(a2-6)]GalNAc
Method in brief: as §1

[4] = target: Gal(b1-3)[Neu5Ac(a2-6)]GlcNAc(b1-4)Gal(b1-4)Glc
Method in brief: as §1

[5] = target: Gal(b1-3)[Neu5Ac(b2-6)]GalNAc
Method in brief: as §1

Gal(b1-4)Gal = target: Gal(b1-4)Gal
Method in brief: as §1

[6] = target: Gal(b1-4)GalNAc(a1-3)[Fuc(a1-2)]Gal(b1-4)GlcNAc
Method in brief: as §1

[7] = target: Gal(b1-4)GalNAc(b1-3)[Fuc(a1-2)]Gal(b1-4)GlcNAc
Method in brief: as §1

Gal(b1-4)Glc = target: Gal(b1-4)Glc
Method in brief: as §1

Gal(b1-4)Glc6S = target: Gal(b1-4)Glc6S
Method in brief: as §1

Gal(b1-4)GlcNAc = target: Gal(b1-4)GlcNAc
Method in brief: as §1

[8] = target: Gal(b1-4)GlcNAc(a1-6)Gal(b1-4)GlcNAc
Method in brief: as §1

Gal(b1-4)GlcNAc(b1-2)Man = target: Gal(b1-4)GlcNAc(b1-2)Man
Method in brief: as §1

[9] = target: Gal(b1-4)GlcNAc(b1-2)Man(a1-3)Man(b1-4)GlcNAc(b1-4)GlcNAc
Method in brief: as §1

[10] = target: Gal(b1-4)GlcNAc(b1-2)Man(a1-3)[Gal(b1-4)GlcNAc(b1-2)Man(a1-6)]Man(b1-4)GlcNAc(b1-4)GlcNAc
Method in brief: as §1

[11] = target: Gal(b1-4)GlcNAc(b1-2)Man(a1-3)[Gal(b1-4)GlcNAc(b1-2)Man(a1-6)]Man(b1-4)GlcNAc(b1-4)[Fuc(a1-6)]GlcNAc
Method in brief: as §1

[12] = target: Gal(b1-4)GlcNAc(b1-2)Man(a1-3)[Gal(b1-4)GlcNAc(b1-2)Man(a1-6)][Gal(b1-4)GlcNAc(b1-4)]Man(b1-4)GlcNAc(b1-4)[Fuc(a1-6)]GlcNAc
Method in brief: as §1

[13] = target: Gal(b1-4)GlcNAc(b1-2)Man(a1-3)[Gal(b1-4)GlcNAc(b1-2)Man(a1-6)][GlcNAc(b1-4)]Man(b1-4)GlcNAc(b1-4)[Fuc(a1-6)]GlcNAc
Method in brief: as §1

[14] = target: Gal(b1-4)GlcNAc(b1-2)Man(a1-3)[GlcNAc(b1-2)Man(a1-6)]Man(b1-4)GlcNAc(b1-4)GlcNAc
Method in brief: as §1

[15] = target: Gal(b1-4)GlcNAc(b1-2)Man(a1-3)[GlcNAc(b1-4)][Gal(b1-4)GlcNAc(b1-2)Man(a1-6)]Man(b1-4)GlcNAc(b1-4)GlcNAc
Method in brief: as §1

[16] = target: Gal(b1-4)GlcNAc(b1-2)Man(a1-3)[Man(a1-6)]Man(b1-4)GlcNAc(b1-4)GlcNAc
Method in brief: as §1

[17] = target: Gal(b1-4)GlcNAc(b1-2)Man(a1-6)Man(b1-4)GlcNAc(b1-4)GlcNAc
Method in brief: as §1

[18] = target: Gal(b1-4)GlcNAc(b1-2)Man(a1-6)[GlcNAc(b1-2)Man(a1-3)]Man(b1-4)GlcNAc(b1-4)GlcNAc
Method in brief: as §1

[19] = target: Gal(b1-4)GlcNAc(b1-2)Man(a1-6)[Man(a1-3)]Man(b1-4)GlcNAc(b1-4)GlcNAc
Method in brief: as §1

[20] = target: Gal(b1-4)GlcNAc(b1-2)[Gal(b1-4)GlcNAc(b1-4)]Man(a1-3)[Gal(b1-4)GlcNAc(b1-2)Man(a1-6)]Man(b1-4)GlcNAc(b1-4)GlcNAc
Method in brief: as §1

[21] = target: Gal(b1-4)GlcNAc(b1-2)[Gal(b1-4)GlcNAc(b1-4)]Man(a1-3)[Gal(b1-4)GlcNAc(b1-2)[Gal(b1-4)GlcNAc(b1-6)]Man(a1-6)]Man(b1-4)GlcNAc(b1-4)GlcNAc
Method in brief: as §1

[22] = target: Gal(b1-4)GlcNAc(b1-2)[Gal(b1-4)GlcNAc(b1-4)]Man(a1-3)[GlcNAc(b1-4)][Gal(b1-4)GlcNAc(b1-2)Man(a1-6)]Man(b1-4)GlcNAc(b1-4)GlcNAc
Method in brief: as §1

[23] = target: Gal(b1-4)GlcNAc(b1-2)[Gal(b1-4)GlcNAc(b1-4)]Man(a1-3)[GlcNAc(b1-4)][Gal(b1-4)GlcNAc(b1-2)[Gal(b1-4)GlcNAc(b1-6)]Man(a1-6)]Man(b1-4)GlcNAc(b1-4)GlcNAc
Method in brief: as §1

[24] = target: Gal(b1-4)GlcNAc(b1-2)[Gal(b1-4)GlcNAc(b1-6)]Man(a1-6)[Gal(b1-4)GlcNAc(b1-2)Man(a1-3)]Man(b1-4)GlcNAc(b1-4)GlcNAc
Method in brief: as §1

[25] = target: Gal(b1-4)GlcNAc(b1-2)[Gal(b1-4)GlcNAc(b1-6)]Man(a1-6)[Gal(b1-4)GlcNAc(b1-2)Man(a1-3)]Man(b1-4)GlcNAc(b1-4)[Fuc(a1-6)]GlcNAc
Method in brief: as §1

[26] = target: Gal(b1-4)GlcNAc(b1-2)[Gal(b1-4)GlcNAc(b1-6)]Man(a1-6)[GlcNAc(b1-4)][Gal(b1-4)GlcNAc(b1-2)Man(a1-3)]Man(b1-4)GlcNAc(b1-4)GlcNAc
Method in brief: as §1

[27] = target: Gal(b1-4)GlcNAc(b1-2)[Gal(b1-4)GlcNAc(b1-6)]Man(a1-6)[GlcNAc(b1-4)][Gal(b1-4)GlcNAc(b1-2)[Gal(b1-4)GlcNAc(b1-4)]Man(a1-3)]Man(b1-4)GlcNAc(b1-4)[Fuc(a1-6)]GlcNAc
Method in brief: as §1

[28] = target: Gal(b1-4)GlcNAc(b1-3)Gal(b1-3)GalNAc
Method in brief: as §1

[29] = target: Gal(b1-4)GlcNAc(b1-3)Gal(b1-3)GlcNAc
Method in brief: as §1

[30] = target: Gal(b1-4)GlcNAc(b1-3)Gal(b1-4)Glc
Method in brief: as §1

[31] = target: Gal(b1-4)GlcNAc(b1-3)Gal(b1-4)GlcNAc
Method in brief: as §1

[32] = target: Gal(b1-4)GlcNAc(b1-3)Gal(b1-4)GlcNAc(b1-2)Man(a1-3)[Gal(b1-4)GlcNAc(b1-3)Gal(b1-4)GlcNAc(b1-2)Man(a1-6)]Man(b1-4)GlcNAc(b1-4)GlcNAc
Method in brief: as §1

[33] = target: Gal(b1-4)GlcNAc(b1-3)Gal(b1-4)GlcNAc(b1-2)Man(a1-3)[Gal(b1-4)GlcNAc(b1-3)Gal(b1-4)GlcNAc(b1-2)Man(a1-6)]Man(b1-4)GlcNAc(b1-4)[Fuc(a1-6)]GlcNAc
Method in brief: as §1

B1: Gs78B-bfa-542-29-542 (Bacteroides fragilis) (protein)
chain: SEDINRNPLLPTKEDEKMDGVIYGAYLPNLEKSVIPIGTASESTEPVNRYQIGVNLAGDAWAGYMSPRDNKFNGSKNFTNYFMYENWVNYVYSFMVTDVYSPWMQIKRISQDEGTRNDEIYALAQIIKIAALHRTTDMFGPIPYSQVGKGSFKVAYDSQESVYRSFLKELEEAVQTLDDYSNKSKEVLPAFDIVYNGDVNKWMRFANSLMLRLAIRVRFADAGLAKEYAEKAVKHPAGLINSKELAAQMGKGAGLQMKNPLKVINEEYNDTRMGATIYSYLAGYNDARAAVYFVKNNGFKAVRCGIAKSGDAYNGFTRPNVHEDDPLYWMKASEVCFLKAEGALAGFDMGGSAGDFYNAGIRMSFSENGLDNSSAETYLKDSTRKPANYTDTSNGELSANAPSSITIRWENGATEEEKLERIITQKYLAIFPNGQEAWTEWRRTGYPRQIVVAENKTNSAVLIGNGYDLGGVRRLPYPRTEYEQNGENLHNAISQYLGGVDNAATKVWWDKKSK
In the case of B1, the “glycan array binding signal (z-score)” value [1] is reported as 0.181, the “glycan array binding signal (z-score)” value [2] is reported as 0.287 and the “glycan array binding signal (z-score)” value [3] is reported as -0.066. The “glycan array binding signal (z-score)” value [4] was 0.135, the “glycan array binding signal (z-score)” value [5] was -0.433 and the “glycan array binding signal (z-score)” value (Gal(b1-4)Gal) was -0.04. For the same binder, the “glycan array binding signal (z-score)” value [6] was -0.343, the “glycan array binding signal (z-score)” value [7] was 0.014 and the “glycan array binding signal (z-score)” value (Gal(b1-4)Glc) was -0.081. For the same binder, the “glycan array binding signal (z-score)” value (Gal(b1-4)Glc6S) was 0.336, the “glycan array binding signal (z-score)” value (Gal(b1-4)GlcNAc) was 1.24 and the “glycan array binding signal (z-score)” value [8] was -0.134. For the same binder, the “glycan array binding signal (z-score)” value (Gal(b1-4)GlcNAc(b1-2)Man) was 0.886, the “glycan array binding signal (z-score)” value [9] was 0.534 and the “glycan array binding signal (z-score)” value [10] was 1.74. The “glycan array binding signal (z-score)” value [11] was 0.257, the “glycan array binding signal (z-score)” value [12] was -0.068 and the “glycan array binding signal (z-score)” value [13] was -0.175. For the same binder, the “glycan array binding signal (z-score)” value [14] was -0.582, the “glycan array binding signal (z-score)” value [15] was -0.311 and the “glycan array binding signal (z-score)” value [16] was 1.73. The “glycan array binding signal (z-score)” value [17] was 0.511, the “glycan array binding signal (z-score)” value [18] was 0.385 and the “glycan array binding signal (z-score)” value [19] was -0.01. The “glycan array binding signal (z-score)” value [20] was 0.215, the “glycan array binding signal (z-score)” value [21] was -0.433 and the “glycan array binding signal (z-score)” value [22] was 1.34. For the same binder, the “glycan array binding signal (z-score)” value [23] was 1.22, the “glycan array binding signal (z-score)” value [24] was 1.16 and the “glycan array binding signal (z-score)” value [25] was 1.05. The “glycan array binding signal (z-score)” value [26] was 0.758, the “glycan array binding signal (z-score)” value [27] was 1.22 and the “glycan array binding signal (z-score)” value [28] was 1.08. For the same binder, the “glycan array binding signal (z-score)” value [29] was -0.683, the “glycan array binding signal (z-score)” value [30] was 0.909 and the “glycan array binding signal (z-score)” value [31] was -0.463. The “glycan array binding signal (z-score)” value [32] was 0.456 and the “glycan array binding signal (z-score)” value [33] was 2.98.
